Data source: PubChem BioAssay AID1159578 (Peter MacCallum Cancer Centre, 2015)

Test: 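siRNA pools altering how lymphatic endothelial cells close a scratch wound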 (primary screen)
System: human lymphatic endothelial cells
Reagents: siRNA pool against human genes, 40 nM
Duration: 48 h after transfection
Read-out: 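Cells stained with dye and imaged after a scratch; covered wound area and nuclei counted, duplicates averaged, migration set against mock wells and turned into a robust z-score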
Scale: migration robust z-score: higher = faster migration into the scratch; migration relative to mock: higher = more scratch area covered than mock; nuclei per well: higher = more cells in the well
Rule for the call: 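Pools averaging fewer than 3300 nuclei are never called; remaining pools count as changed when migration robust z lies outside -2 to 2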
Calls: active = migration changed; inactive = no migration change, or too few cells
This is an unselected part of about 18,000 deposited reagents. Over the whole deposit, about 1,030 (5.7%) were called active. 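Inactive calls also include pools with fewer than 3300 nuclei, whose migration was not assessed.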 Raw values vary from plate to plate and are shown uncorrected. A number with no mark means an inactive call.

gene knocked down	PubChem SID	migration robust z-score	migration class with cell-count check	migration relative to mock	nuclei per well, duplicate mean
TRAPPC12	SID255357487	-0.16	migration z between -2 and 2; enough cells	0.84	5836
MYH8	SID255351103	1.25	migration z between -2 and 2; enough cells	1.04	5090
GNA13	SID255355278	-0.05	migration z between -2 and 2; enough cells	0.8	5916
PCDHB12	SID255359010	-1.16	migration z between -2 and 2; enough cells	0.58	4712
MND1	SID255361165	0.76	migration z between -2 and 2; enough cells	1.08	6433
FOXL1	SID255349706	-1.71	migration z between -2 and 2; enough cells	0.48	5060
HSD17B8	SID255353342	0.83	migration z between -2 and 2; enough cells	0.96	6522
MRPS2	SID255357490	0.02	migration z between -2 and 2; enough cells	0.89	4908
PLA2G10	SID255353528	-1.82	migration z between -2 and 2; enough cells	0.46	4278
LRRC24	SID255365941	-0.72	migration z between -2 and 2; enough cells	0.7	5700
GCNA	SID255362096	0.6	migration z between -2 and 2; enough cells	1.04	5100
H2AZ2	SID255362129	-0.06	migration z between -2 and 2; enough cells	0.87	5839
LYG2	SID255364464	-0.16	migration z between -2 and 2; enough cells	0.77	6592
KRT10	SID255350687	2.12 (active)	migration z above 2; enough cells	1.44	5920
ING3	SID255358086	-0.73	migration z between -2 and 2; enough cells	0.7	3429

Active calls, of those listed so far:
gene knocked down	PubChem SID	migration robust z-score	migration class with cell-count check	migration relative to mock	nuclei per well, duplicate mean
KRT10	SID255350687	2.12 (active)	migration z above 2; enough cells	1.44	5920

Additional entries follow.
gene knocked down	PubChem SID	migration robust z-score	migration class with cell-count check	migration relative to mock	nuclei per well, duplicate mean
POMT2	SID255357243	-2.38	under 3300 nuclei; migration not judged	0.34	3272
RPL28	SID255352187	-1.02	migration z between -2 and 2; enough cells	0.61	5632
VKORC1	SID255360152	-0.42	migration z between -2 and 2; enough cells	0.72	4105
SDHD	SID255352353	-0.47	migration z between -2 and 2; enough cells	0.72	5380
ARRDC1-AS1	SID255361645	1.6	migration z between -2 and 2; enough cells	1.3	6784
JCHAIN	SID255350436	-0.04	migration z between -2 and 2; enough cells	0.88	7002
SLFN5	SID255363747	0.1	migration z between -2 and 2; enough cells	0.91	7010
OAF	SID255364248	0.2	migration z between -2 and 2; enough cells	0.93	5342
